Measurements reported in doi:10.1101/2021.01.11.426220.
These are yes or no findings as the source states them, for the method shown. Binding seen in cells or lysates may run through a third protein. A yes stands for co-enrichment or nearness to the bait. Other partners may have been found.

Protein sequences, listed by entry. Tags and fused reporters are not part of them.
UniProt P32495: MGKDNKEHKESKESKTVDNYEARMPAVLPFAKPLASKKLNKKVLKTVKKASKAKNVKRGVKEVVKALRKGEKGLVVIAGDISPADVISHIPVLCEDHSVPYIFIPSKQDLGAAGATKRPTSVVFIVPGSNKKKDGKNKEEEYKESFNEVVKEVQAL
UniProt P33322: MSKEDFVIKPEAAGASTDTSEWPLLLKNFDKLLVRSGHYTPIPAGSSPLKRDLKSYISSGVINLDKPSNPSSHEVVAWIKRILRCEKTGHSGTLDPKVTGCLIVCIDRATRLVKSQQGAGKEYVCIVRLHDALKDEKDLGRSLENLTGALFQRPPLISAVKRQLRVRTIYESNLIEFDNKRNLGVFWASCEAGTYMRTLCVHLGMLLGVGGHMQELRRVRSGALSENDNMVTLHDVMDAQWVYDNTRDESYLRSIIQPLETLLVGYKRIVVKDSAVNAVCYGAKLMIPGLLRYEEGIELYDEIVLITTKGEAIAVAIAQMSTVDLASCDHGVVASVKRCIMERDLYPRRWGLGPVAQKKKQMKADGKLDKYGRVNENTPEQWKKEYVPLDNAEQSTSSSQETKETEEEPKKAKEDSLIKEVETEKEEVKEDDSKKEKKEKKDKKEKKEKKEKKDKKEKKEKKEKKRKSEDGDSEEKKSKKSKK
UniProt P28007: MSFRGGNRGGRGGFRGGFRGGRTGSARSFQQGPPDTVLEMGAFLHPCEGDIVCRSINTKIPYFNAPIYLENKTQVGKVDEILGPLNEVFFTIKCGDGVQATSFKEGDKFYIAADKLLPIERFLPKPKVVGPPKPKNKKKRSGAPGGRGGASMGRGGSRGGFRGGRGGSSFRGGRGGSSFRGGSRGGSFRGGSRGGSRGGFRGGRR

Target: myc-tagged Nhp2 (S. cerevisiae) (UniProt P32495)
Assay: affinity purification with mass spectrometry

Molecule: Cbf5 (from UniProt P33322 1-483)
- binding: binds

Molecule: Gar1 (from UniProt P28007 1-205)
- binding: binds

B1: Mpp10 (protein, UniProt P47083 1-593)
chain: MSELFGVLKSNAGRIILKDPSATSKDVKAYIDSVINTCKNGSITKKAELDEITVDGLDANQVWWQVKLVLDSIDGDLIQGIQELKDVVTPSHNLSDGSTLNSSSGEESELEEAESVFKEKQMLSADVSEIEEQSNDSLSENDEEPSMDDEKTSAEAAREEFAEEKRISSGQDERHSSPDPYGINDKFFDLEKFNRDTLAAEDSNEASEGSEDEDIDYFQDMPSDDEEEEAIYYEDFFDKPTKEPVKKHSDVKDPKEDEELDEEEHDSAMDKVKLDLFADEEDEPNAEGVGEASDKNLSSFEKQQIEIRKQIEQLENEAVAEKKWSLKGEVKAKDRPEDALLTEELEFDRTAKPVPVITSEVTESLEDMIRRRIQDSNFDDLQRRTLLDITRKSQRPQFELSDVKSSKSLAEIYEDDYTRAEDESALSEELQKAHSEISELYANLVYKLDVLSSVHFVPKPASTSLEIRVETPTISMEDAQPLYMSNASSLAPQEIYNVGKAEKDGEIRLKNGVAMSKEELTREDKNRLRRALKRKRSKANLPNVNKRSKRNDVVDTLSKAKNITVINQKGEKKDVSGKTKKSRSGPDSTNIKL
- binding: binds

B2: Imp4 (protein, UniProt P53941 1-290)
chain: MLRRQARERREYLYRKAQELQDSQLQQKRQIIKQALAQGKPLPKELAEDESLQKDFRYDQSLKESEEADDLQVDDEYAATSGIMDPRIIVTTSRDPSTRLSQFAKEIKLLFPNAVRLNRGNYVMPNLVDACKKSGTTDLVVLHEHRGVPTSLTISHFPHGPTAQFSLHNVVMRHDIINAGNQSEVNPHLIFDNFTTALGKRVVCILKHLFNAGPKKDSERVITFANRGDFISVRQHVYVRTREGVEIAEVGPRFEMRLFELRLGTLENKDADVEWQLRRFIRTANKKDYL
- binding: binds
